The values that follow come from PubChem BioAssay AID493014 (National Center for Advancing Translational Sciences (NCATS), 2011).

The list shows a part of the results. Shown are side measurements of this screen, not its main read-out; they come without a call. Most of these compounds were active or inconclusive in the main read-out, so they are no random draw. Words in brackets tell the shape of the fitted curve; partial curves, single points and poor fits give uncertain potencies.

The AC50 is the concentration giving half of the maximal activity seen.

The nature of the experiment: qHTS Assay to Find Inhibitors of Chronic Active B-Cell Receptor Signaling. The conditions noted are these: ABC-DLBCL IkBa-CBG/CBR reporter, luminescence ratio (green luciferase fused to IkBa over red control in TMD8 lymphoma cells), 4 h. Put shortly: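 TMD8 ABC-DLBCL cells carrying doxycycline-inducible green luciferase fused to IkappaBalpha plus unfused red luciferase were exposed to compounds (up to 46 uM) for 4 hrs at 37C. Activity came from the overlap-corrected green/red luminescence ratio.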

[1] abbreviates: measured here: CBR red luminescence, cell number.
Where [2] appears, read: measured here: IkBa-CBG green luminescence.

`C/C(=N/NC(=O)c1ccn(C)n1)c1ccncc1`: the AC50 under setting [1] is 35.5 µM [falling, single point].

Turning to `COC(=O)C(=Nc1ccccc1)/C(C(=O)C(=O)N(C)c1ccccc1)=C(\O)c1ccc(Cl)cc1`, under setting [1], the AC50 was 7.94 µM [falling, partial curve].

For `CC(=O)Nc1cccc(-c2nc3ccc(NC(C)=O)cc3[nH]2)c1`, the AC50 under setting [1] is 0.1 µM [falling, full curve, poor fit].

As for `COc1ccc(-c2nn(-c3ccccc3)cc2/C=N/NC(=O)c2cccc(S(=O)(=O)Nc3ccccc3OC)c2)cc1`, the AC50 under setting [1] was 8.2 µM [rising, partial curve].

In the case of `O=C(CCCOc1ccc(Cl)cc1Cl)NCc1ccncc1`, the AC50 under setting [1] is 7.94 µM [rising, full curve, poor fit].

With `CCn1c(COC(=O)CNC(=O)c2ccccc2)nc2cc(S(=O)(=O)N(C)C)ccc21`, the AC50 under setting [1] is 29.1 µM [rising, single point].

For `O=C(c1ccc(COCC(F)(F)F)cc1)N1CCN(c2ccccn2)CC1`, the AC50 under setting [1] is 0.316 µM [rising, partial curve, poor fit].

`CCCc1cc(=O)oc2cc(OCC(=O)NCCCn3ccnc3)c(Cl)cc12`: the half-maximal activity concentration (AC50) under setting [1] was 15.8 µM [rising, partial curve, poor fit].

Regarding `C=CCn1c(=O)c(C#N)cc2c(=O)n3ccccc3nc21`, the AC50 under setting [1] was 2.82 µM [falling, full curve, poor fit].

Regarding `CCOc1ccc(NC2c3ccccc3C(=O)N2c2ccc(Cl)cn2)cc1` (configuration not stated), the half-maximal activity concentration (AC50) under setting [1] is 29.1 µM [rising, single point].

As to `O=C(Nc1ccc2c(c1)OCCO2)C1CCN(C(=O)c2ccc(F)cc2)CC1`, under setting [1], the AC50 is 35.5 µM [falling, single point].

As to `CCCCn1cnc2c(sc3nc4c(cc32)CSC(C)(C)C4)c1=O`, the AC50 under setting [1] is 18.4 µM [rising, partial curve, poor fit].

With `O=c1[nH]c(=O)n(Cc2ccco2)c2c1C(C(F)(F)F)(C(F)(F)F)N=C(CCc1ccccc1)N2`, under setting [1], the AC50 is 35.5 µM [falling, single point].

For the compound `COc1ccc(-c2cc(-c3cc(F)ccc3O)[nH]n2)cc1OC`, the AC50 under setting [1] was 10 µM [falling, partial curve, poor fit].

For `COc1ccc(NC(=O)c2ccccn2)cc1`, under setting [1], the half-maximal activity concentration (AC50) is 10 µM [falling, partial curve].

Turning to `O=Cc1ccc(OCc2cccc(C(F)(F)F)c2)cc1O`, the half-maximal activity concentration (AC50) under setting [1] is 12.6 µM [rising, partial curve].

`CN(C)S(=O)(=O)c1ccc(C(=O)Nc2ccccc2SCCC#N)cc1`: the AC50 under setting [1] was 12.6 µM [falling, partial curve, poor fit].

On to `Cc1ccc(C(=O)Nc2cnc3ccccc3c2)cc1`, for which the half-maximal activity concentration (AC50) under setting [1] was 20.6 µM [falling, single point].

Take `Cc1cccc(C(=O)NNC2=CC(=O)CC(C)(C)C2)c1O`: under setting [1], the AC50 was 35.5 µM [falling, single point].

On to `O=c1c(C=NCCCO)c(-c2ccccc2)[nH]n1-c1nc2ccccc2s1`, for which the AC50 by setting is: under setting [1], 1.58 µM [rising, full curve, poor fit]; under setting [2], 5.62 µM [falling, partial curve, poor fit].

Take `COCCN1CCN(Cc2cn(C)nc2-c2ccc(Oc3ccccc3)cc2)CC1`: under setting [1], the half-maximal activity concentration (AC50) is 15.8 µM [rising, partial curve, poor fit].

On to `Cc1cc(C)cc(-c2nnc(SCC(=O)N3CCN(C(=O)c4ccco4)CC3)o2)c1`, for which, under setting [1], the AC50 is 6.31 µM [rising, partial curve, poor fit].

For `Cc1ccc(Nc2nc(N)c([N+](=O)[O-])c(NCc3ccco3)n2)cc1C`, the concentration at half-maximal activity (AC50) under setting [1] was 11.6 µM [rising, partial curve].

Turning to `CCCOc1ccc(C2Nc3cccc4cccc(c34)N2)cc1`, under setting [1], the AC50 is 15.8 µM [falling, single point].

As for `CCOC(=O)c1cc(NC(=O)Nc2ccc(OC)c(OC)c2)c(C)nc1C`, under setting [1], the AC50 was 4.61 µM [falling, full curve].

As to `COc1ccc(OC)c(C(=O)c2c(C)oc3cc([N+](=O)[O-])c(O)c([N+](=O)[O-])c23)c1`, under setting [1], the half-maximal activity concentration (AC50) is 6.31 µM [falling, single point].

Take `Cc1ccc(C(C(=O)NC(C)(C)C)N(Cc2ccccc2)C(=O)c2snc(C(N)=O)c2N)o1` (configuration not stated): the half-maximal activity concentration (AC50) under setting [1] was 22.4 µM [falling, single point].

For `N#Cc1cc(C#N)c(N2CCN(c3cccc(Cl)n3)CC2)nc1N`, the AC50 under setting [1] is 35.5 µM [falling, single point].

As to `COc1cc(CNCCO)cc(Br)c1OCc1cccs1`, under setting [1], the concentration at half-maximal activity (AC50) was 7.08 µM [falling, partial curve, poor fit].

Consider `Nc1nnc(CC(=O)Nc2ccccc2)s1`, for which, under setting [1], the AC50 is 35.5 µM [falling, single point].

In the case of `O=c1oc(-c2ccco2)nc2sc3c(c12)CCCC3`, the AC50 under setting [1] was 2.91 µM [falling, full curve, poor fit].

For `O=C(Nc1ccc(N2CCOCC2)c(F)c1)c1ccncc1`, the half-maximal activity concentration (AC50) under setting [1] is 29.1 µM [falling, single point].

With `CCOC(=O)C1=C(C)NC(C)=C(C(=O)OCC)C1/C=C/c1ccccc1OC`, the AC50 under setting [1] is 29.1 µM [falling, single point].

Turning to `O=C(CSc1nnnn1C1CCCC1)NCCc1ccccc1`, under setting [1], the half-maximal activity concentration (AC50) was 5.01 µM [rising, partial curve, poor fit].

Regarding `Cn1cccc1Cc1nnc(SCC(=O)Nc2nccs2)n1CCc1ccccc1`, the AC50 under setting [1] is 29.1 µM [falling, partial curve, poor fit].

Consider `CNC(=O)c1oc(-c2ccc(Cl)cc2)nc1C`, for which the half-maximal activity concentration (AC50) under setting [1] is 8.91 µM [rising, partial curve, poor fit].

Regarding `O=C(Nc1ccccn1)Nc1ccccc1Cl`, the half-maximal activity concentration (AC50) under setting [1] is 35.5 µM [rising, single point].

For the compound `COc1cccc(-c2ccc(NC(=O)C3CCCN(Cc4cnc(C)n4C)C3)cc2)c1` (configuration not stated), the AC50 under setting [1] was 28.2 µM [falling, single point].

Regarding `Cc1nnc(NC(=O)c2ccc3ccccc3c2)o1`, the AC50 under setting [1] was 35.5 µM [falling, single point] and the AC50 under setting [2] was 35.5 µM [falling, single point].

`O=C(O)c1nc2nc(Cl)c(Cl)nc2[nH]1`: the half-maximal activity concentration (AC50) under setting [1] is 11.2 µM [falling, partial curve, poor fit].

With `CC1CC(CN)CC(CO)C1` (configuration not stated), the AC50 under setting [1] was 2.51 µM [rising, single point].

For `CC[C@H](C)[C@H](NC(N)=O)C(=O)Nc1ccc(NC(C)=O)cc1`, the AC50 under setting [1] was 6.31 µM [rising, single point].

`COc1ccc2[nH]c(=O)c(CN(c3ccccc3OC)S(=O)(=O)c3ccccc3)cc2c1`: the AC50 under setting [1] was 3.98 µM [falling, partial curve, poor fit].

Regarding `O=C(CCc1ccccc1)Nc1cc(Cl)ccc1O`, under setting [1], the AC50 was 16.4 µM [falling, single point].

On to `CCOc1ccc(C(=O)NCC(=O)OCc2c(F)cccc2Cl)cc1OCC`, for which the AC50 under setting [1] was 25.9 µM [rising, single point].

For `COc1cc(C(=O)NCc2ccc(-c3nc4ccccc4s3)cc2)cc(OC)c1OC`, under setting [1], the concentration at half-maximal activity (AC50) is 1.3 µM [rising, full curve].

Turning to `N#CCCN(C(=O)CCl)c1cccc(Cl)c1`, under setting [1], the half-maximal activity concentration (AC50) is 11.2 µM [falling, partial curve].

Take `COc1ccc(NC(=O)C2CCCN2S(=O)(=O)c2ccc3c(c2)CCC(=O)N3)cc1Cl` (configuration not stated): the AC50 under setting [1] was 32.6 µM [falling, single point].

On to `COc1ccc(NC(=O)c2cc(S(=O)(=O)NCC3COc4ccccc4O3)ccc2F)cc1` (configuration not stated), for which the half-maximal activity concentration (AC50) under setting [1] was 7.31 µM [falling, partial curve].

On to `COc1ccccc1N1CCN(C(=O)c2ccc3c(=O)n(Cc4ccc5c(c4)OCO5)c(=O)[nH]c3c2)CC1`, for which the concentration at half-maximal activity (AC50) under setting [1] is 3.98 µM [falling, full curve].

Consider `C/C=N/N(c1ccccc1)c1ccccc1`, for which the AC50 under setting [1] is 10 µM [rising, partial curve, poor fit].

Consider `Cc1ccnc(NCc2c(O)ccc3ccccc23)c1`, for which, under setting [1], the concentration at half-maximal activity (AC50) was 6.31 µM [falling, partial curve, poor fit].

Turning to `O=C1CC(c2ccccc2F)c2cc3c(cc2N1)CCC3` (configuration not stated), under setting [1], the half-maximal activity concentration (AC50) was 0.708 µM [falling, full curve].

In the case of `Cc1cc(/C=C(/C#N)c2cccc(F)c2)c(C)n1-c1cccnc1`, the AC50 under setting [1] is 3.66 µM [rising, single point].

For `CCOC(=O)CC1C(=O)NC2CCCCC2N1C(=O)Nc1ccc(Cl)cc1` (configuration not stated), under setting [1], the AC50 is 7.31 µM [rising, partial curve, poor fit].

Take `COc1cc(/C=C/C(=O)OCC(=O)Nc2cccc(Oc3ccccc3)c2)ccc1O`: the AC50 under setting [1] was 18.4 µM [falling, single point].

Regarding `Cc1cccc2cc(COC(=O)c3ccccc3)c(=O)[nH]c12`, under setting [1], the half-maximal activity concentration (AC50) was 8.91 µM [rising, partial curve, poor fit].

Consider `O=C(N/N=C1/CC2C=CCC12)c1ccco1` (configuration not stated), for which, under setting [1], the half-maximal activity concentration (AC50) is 20.6 µM [falling, partial curve].

As to `O=C(NC1CCCCC1)NC1CC2CCCC(C1)N2C1CCCC1` (configuration not stated), the half-maximal activity concentration (AC50) under setting [1] is 3.55 µM [rising, single point].

On to `CC(=O)c1cccc(NC(=O)c2cc(C)nn2-c2ccccc2)c1`, for which the concentration at half-maximal activity (AC50) under setting [1] was 35.5 µM [rising, single point].

`COc1ccc(-n2nc(C(=O)NCC(=O)NCCCN3CCC(C)CC3)c3ccccc3c2=O)cc1Cl`: under setting [1], the AC50 is 11.2 µM [falling, single point].

In the case of `Cc1ccc(C(C)NC(=O)/C(C#N)=C\c2c(C)[nH]c3ccccc23)cc1` (configuration not stated), under setting [1], the AC50 is 16.4 µM [falling, partial curve, poor fit].

Take `O=C(O)c1ccccc1OCCOCCOc1ccccc1C(=O)O`: under setting [1], the AC50 is 29.1 µM [rising, single point].

Take `CC(/C=N\NC(=O)c1cc(C)oc1C)=C\c1ccccc1`: the AC50 under setting [1] was 0.259 µM [falling, full curve].

As for `Cc1cc2c(c(=O)n1C)C(Cc1ccccc1)C(C#N)=C(N)O2` (configuration not stated), under setting [1], the half-maximal activity concentration (AC50) is 11.6 µM [falling, partial curve, poor fit].
